Results from paper PMC9266683.
No constants are given. Whether binding was seen depends on the method and setting. In cells and extracts the contact can be indirect. Some binding calls cover weakened binding; strength is not graded here. Where a sequence is shown, tags or fusion partners need not be part of it.

The chains behind the UniProt entries cited, without tags or fusion partners. Residues count along the entry.
UniProt O48686, residues 1-390: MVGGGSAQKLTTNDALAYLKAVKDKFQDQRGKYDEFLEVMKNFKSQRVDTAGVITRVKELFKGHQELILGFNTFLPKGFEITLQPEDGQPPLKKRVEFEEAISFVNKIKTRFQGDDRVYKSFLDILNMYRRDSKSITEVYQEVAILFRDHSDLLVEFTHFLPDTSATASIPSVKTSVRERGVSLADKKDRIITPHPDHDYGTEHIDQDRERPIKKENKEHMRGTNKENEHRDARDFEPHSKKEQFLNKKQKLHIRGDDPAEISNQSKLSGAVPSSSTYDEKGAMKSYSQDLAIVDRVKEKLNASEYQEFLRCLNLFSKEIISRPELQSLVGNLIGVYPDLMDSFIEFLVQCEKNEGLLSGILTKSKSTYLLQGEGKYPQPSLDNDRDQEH

Legend:
Experiment in all cases: split reporter; firefly luciferase complementation imaging (LCI); VAL1 constructs fused to nLUC, SNL constructs to cLUC; co-infiltrated into N. benthamiana leaves, 22 °C for 48 h, imaged with a CCD
[1] = target: T1, SNL1, intact, fused to the C-terminal half of luciferase (cLUC) (Arabidopsis thaliana) (UniProt Q9SRH9)
T1 sequence: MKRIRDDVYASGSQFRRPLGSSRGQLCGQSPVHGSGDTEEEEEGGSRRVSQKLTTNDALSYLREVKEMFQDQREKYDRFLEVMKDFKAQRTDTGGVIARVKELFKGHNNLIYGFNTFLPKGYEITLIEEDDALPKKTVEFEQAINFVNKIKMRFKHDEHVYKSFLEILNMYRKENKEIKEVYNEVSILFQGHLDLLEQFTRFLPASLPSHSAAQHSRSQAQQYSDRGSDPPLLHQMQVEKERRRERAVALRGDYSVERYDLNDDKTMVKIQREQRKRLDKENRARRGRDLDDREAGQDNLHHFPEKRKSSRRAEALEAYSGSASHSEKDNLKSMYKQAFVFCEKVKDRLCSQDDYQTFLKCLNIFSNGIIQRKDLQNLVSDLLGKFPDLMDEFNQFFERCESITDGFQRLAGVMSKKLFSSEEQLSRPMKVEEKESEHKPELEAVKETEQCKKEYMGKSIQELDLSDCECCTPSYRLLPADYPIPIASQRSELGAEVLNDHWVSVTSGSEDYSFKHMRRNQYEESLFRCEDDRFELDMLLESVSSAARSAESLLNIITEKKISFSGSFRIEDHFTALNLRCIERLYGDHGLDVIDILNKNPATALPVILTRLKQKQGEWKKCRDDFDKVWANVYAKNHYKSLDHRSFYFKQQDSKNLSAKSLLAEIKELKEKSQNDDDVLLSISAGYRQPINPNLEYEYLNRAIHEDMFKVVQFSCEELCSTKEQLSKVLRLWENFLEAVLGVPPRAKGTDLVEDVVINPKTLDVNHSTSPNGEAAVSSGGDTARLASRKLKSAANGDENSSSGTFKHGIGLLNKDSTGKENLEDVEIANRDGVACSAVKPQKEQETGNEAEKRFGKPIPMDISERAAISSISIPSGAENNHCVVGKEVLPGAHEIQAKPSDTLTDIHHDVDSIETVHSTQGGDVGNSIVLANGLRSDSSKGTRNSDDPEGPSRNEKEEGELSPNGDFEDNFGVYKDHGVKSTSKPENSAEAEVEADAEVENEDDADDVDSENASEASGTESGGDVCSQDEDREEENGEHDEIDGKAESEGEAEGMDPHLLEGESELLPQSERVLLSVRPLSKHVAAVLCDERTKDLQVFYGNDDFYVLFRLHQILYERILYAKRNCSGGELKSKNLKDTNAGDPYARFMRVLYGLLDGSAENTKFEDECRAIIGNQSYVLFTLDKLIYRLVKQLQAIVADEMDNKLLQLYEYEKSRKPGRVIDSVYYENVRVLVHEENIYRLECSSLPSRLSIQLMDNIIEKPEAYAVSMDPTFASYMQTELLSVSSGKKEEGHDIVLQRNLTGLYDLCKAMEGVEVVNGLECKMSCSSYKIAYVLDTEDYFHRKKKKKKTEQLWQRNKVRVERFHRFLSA

[2] = target: SNL3-PAH (aa 1–390), fused to the C-terminal half of luciferase (cLUC) (Arabidopsis thaliana) (UniProt O48686)
[3] = target: T2, SNL2, intact, fused to the C-terminal half of luciferase (cLUC) (Arabidopsis thaliana) (UniProt Q9LFQ3)
T2 sequence: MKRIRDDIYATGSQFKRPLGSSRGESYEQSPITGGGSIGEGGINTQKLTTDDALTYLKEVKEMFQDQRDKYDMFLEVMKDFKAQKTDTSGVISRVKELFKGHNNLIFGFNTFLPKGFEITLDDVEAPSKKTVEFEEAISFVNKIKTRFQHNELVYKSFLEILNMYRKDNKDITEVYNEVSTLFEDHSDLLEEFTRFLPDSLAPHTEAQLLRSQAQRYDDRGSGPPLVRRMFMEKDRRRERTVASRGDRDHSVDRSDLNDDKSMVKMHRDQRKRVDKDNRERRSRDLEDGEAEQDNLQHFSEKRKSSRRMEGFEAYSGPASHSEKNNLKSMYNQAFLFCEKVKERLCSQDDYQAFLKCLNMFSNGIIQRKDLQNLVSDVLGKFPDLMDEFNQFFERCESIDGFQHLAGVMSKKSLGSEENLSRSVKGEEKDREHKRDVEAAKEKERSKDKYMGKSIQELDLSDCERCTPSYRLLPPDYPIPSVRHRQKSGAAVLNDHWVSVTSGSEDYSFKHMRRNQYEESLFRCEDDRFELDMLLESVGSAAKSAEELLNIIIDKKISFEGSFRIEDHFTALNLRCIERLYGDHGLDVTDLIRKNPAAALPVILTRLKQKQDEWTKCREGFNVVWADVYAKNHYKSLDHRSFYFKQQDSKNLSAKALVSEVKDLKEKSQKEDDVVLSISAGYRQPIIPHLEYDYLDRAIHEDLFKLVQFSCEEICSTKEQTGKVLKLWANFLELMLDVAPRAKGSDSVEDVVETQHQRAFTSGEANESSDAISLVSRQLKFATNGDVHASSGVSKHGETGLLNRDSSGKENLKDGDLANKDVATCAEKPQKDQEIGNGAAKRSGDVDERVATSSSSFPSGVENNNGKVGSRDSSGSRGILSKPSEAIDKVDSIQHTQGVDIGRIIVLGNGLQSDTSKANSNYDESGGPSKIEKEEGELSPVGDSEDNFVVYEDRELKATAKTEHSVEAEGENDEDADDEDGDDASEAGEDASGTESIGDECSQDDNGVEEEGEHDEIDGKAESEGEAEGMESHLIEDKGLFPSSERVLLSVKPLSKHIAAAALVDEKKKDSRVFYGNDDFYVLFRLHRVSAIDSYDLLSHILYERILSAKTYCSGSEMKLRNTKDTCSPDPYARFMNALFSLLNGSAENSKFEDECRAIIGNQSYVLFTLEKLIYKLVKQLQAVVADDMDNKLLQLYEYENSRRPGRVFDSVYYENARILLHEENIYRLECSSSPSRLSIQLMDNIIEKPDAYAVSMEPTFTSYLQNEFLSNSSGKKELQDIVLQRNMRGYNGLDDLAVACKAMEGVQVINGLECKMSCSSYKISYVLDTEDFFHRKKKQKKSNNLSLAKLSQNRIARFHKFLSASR

Measured: binding

B1: VAL1, intact, fused to the N-terminal half of luciferase (nLUC) (protein, UniProt Q8W4L5 1-790)
chain: MFEVKMGSKMCMNASCGTTSTVEWKKGWPLRSGLLADLCYRCGSAYESSLFCEQFHKDQSGWRECYLCSKRLHCGCIASKVTIELMDYGGVGCSTCACCHQLNLNTRGENPGVFSRLPMKTLADRQHVNGESGGRNEGDLFSQPLVMGGDKREEFMPHRGFGKLMSPESTTTGHRLDAAGEMHESSPLQPSLNMGLAVNPFSPSFATEAVEGMKHISPSQSNMVHCSASNILQKPSRPAISTPPVASKSAQARIGRPPVEGRGRGHLLPRYWPKYTDKEVQQISGNLNLNIVPLFEKTLSASDAGRIGRLVLPKACAEAYFPPISQSEGIPLKIQDVRGREWTFQFRYWPNNNSRMYVLEGVTPCIQSMMLQAGDTVTFSRVDPGGKLIMGSRKAANAGDMQGCGLTNGTSTEDTSSSGVTENPPSINGSSCISLIPKELNGMPENLNSETNGGRIGDDPTRVKEKKRTRTIGAKNKRLLLHSEESMELRLTWEEAQDLLRPSPSVKPTIVVIEEQEIEEYDEPPVFGKRTIVTTKPSGEQERWATCDDCSKWRRLPVDALLSFKWTCIDNVWDVSRCSCSAPEESLKELENVLKVGREHKKRRTGESQAAKSQQEPCGLDALASAAVLGDTIGEPEVATTTRHPRHRAGCSCIVCIQPPSGKGRHKPTCGCTVCSTVKRRFKTLMMRRKKKQLERDVTAAEDKKKKDMELAESDKSKEEKEVNTARIDLNSDPYNKEDVEAVAVEKEESRKRAIGQCSGVVAQDASDVLGVTELEGEGKNVREEPRVSS
binds: all assays above

B2: VAL1-CW (aa 458–673), fused to the N-terminal half of luciferase (nLUC) (domain or fragment, UniProt Q8W4L5 458-673)
chain: DDPTRVKEKKRTRTIGAKNKRLLLHSEESMELRLTWEEAQDLLRPSPSVKPTIVVIEEQEIEEYDEPPVFGKRTIVTTKPSGEQERWATCDDCSKWRRLPVDALLSFKWTCIDNVWDVSRCSCSAPEESLKELENVLKVGREHKKRRTGESQAAKSQQEPCGLDALASAAVLGDTIGEPEVATTTRHPRHRAGCSCIVCIQPPSGKGRHKPTCGCT
binds: all assays above
